Experimental data from US5908787A, “Total protein detection method” (Bayer Corporation, priority 1997, dated 1999).

System: human serum albumin (HSA)
Experiment: Pyrogallol red/molybdate test strip with secondary dye: visual resolution between protein levels
Settings: strip mix pH 1.5, visual rating 0-3; for Reagent Response to Protein Expressed as Visual Resolution Between Levels (mg/dL) 0-15: HSA 0-15 mg/dL in urine; for Reagent Response to Protein Expressed as Visual Resolution Between Levels (mg/dL) 15-50: HSA 15-50 mg/dL in urine; for Reagent Response to Protein Expressed as Visual Resolution Between Levels (mg/dL) 50-150: HSA 50-150 mg/dL in urine; for Reagent Response to Protein Expressed as Visual Resolution Between Levels (mg/dL) 150-450: HSA 150-450 mg/dL in urine

Row | SMILES | Reagent Response to Protein Expressed as Visual Resolution Between Levels (mg/dL) 0-15 | Reagent Response to Protein Expressed as Visual Resolution Between Levels (mg/dL) 15-50 | Reagent Response to Protein Expressed as Visual Resolution Between Levels (mg/dL) 50-150 | Reagent Response to Protein Expressed as Visual Resolution Between Levels (mg/dL) 150-450
1 | O=[N+]([O-])c1cc(C2(c3cc(Br)c(O)c(I)c3)OS(=O)(=O)c3c(Br)c(Br)c(Br)c(Br)c32)cc(Br)c1O (stereo not shown) [Secondary dye 7, 5'-Nitro-5''-Iodo-3',3"3,4,5,6-hexabromophenolsulfonephthalein] | 3 | 2 | 3 | 2
2 | O=S1(=O)OC(c2cc(I)c(O)c(I)c2)(c2cc(I)c(O)c(I)c2)c2ccccc21 [Secondary dye 4, Tetraiodophenolsulfonephthalein] | 2 | 2 | 1 | 0
3 | O=S1(=O)OC(c2cc(Br)c(O)c(Br)c2)(c2cc(Br)c(O)c(Br)c2)c2c(Br)c(Br)c(Br)c(Br)c21 [Secondary dye 2, Tetrabromophenol blue] | 2 | 2 | 1 | 0
4 | O=S1(=O)OC(c2cc(Br)c(O)c(Br)c2)(c2cc(Br)c(O)c(Br)c2)c2ccccc21 [Secondary dye 1, Bromophenol blue] | 2 | 2 | 1 | 0
5 | O=[N+]([O-])c1cc(C2(c3cc(Br)c(O)c([N+](=O)[O-])c3)OS(=O)(=O)c3c(Br)c(Br)c(Br)c(Br)c32)cc(Br)c1O [Secondary dye 6, 5',5"-Dinitro-3',3",3,4,5,6-hexabromophenolsulfonephthalein] | 3 | 3 | 2 | 0
6 | O=[N+]([O-])c1cc(C2(c3cc(I)c(O)c([N+](=O)[O-])c3)OS(=O)(=O)c3c(Br)c(Br)c(Br)c(Br)c32)cc(I)c1O [Secondary dye 5, 5',5"-Dinitro-3',3"-Diiodo-3,4,5,6-Tetrabromophenolsulfonephthalein] | 3 | 2 | 1 | 0
7 | O=S1(=O)OC(c2cc(Cl)c(O)c(Br)c2)(c2cc(Cl)c(O)c(Br)c2)c2ccccc21 [Secondary dye 3, Bromochlorophenol blue] | 2 | 2 | 1 | 0
